Earlier results in article PMC7705649 (Scientific Reports, 2020).

System: HSA protein
Conditions: cited from earlier work

SMILES | binding site on HSA protein
Nc1nc(=O)c2nc(CNc3ccc(C(=O)N[C@@H](CCC(=O)O)C(=O)O)cc3)cnc2[nH]1 [FA, folic acid] | Domain I
O=C(O)c1cc(/N=N/c2ccc(S(=O)(=O)Nc3ccccn3)cc2)ccc1O [SASP, sulfasalazine] | Domain IIb
Nc1ccc(O)c(C(=O)O)c1 [MSZ, mesalazine] | Domain IIIa
O=C(O)CCNC(=O)c1ccc(/N=N/c2ccc(O)c(C(=O)O)c2)cc1 [BSZ, balsalazide] | Domain IIIa
